For assay [1], the target named is CCAAT/enhancer binding protein β (human (endogenous in hESC-derived HPCs and LO2 cells)) (UniProt P17676). As to the kind of experiment: co-IP; lysate of HPCs on day 14 (about 2 x 10^6 cells), pre-cleared with protein A/G agarose beads; IP overnight at 4 °C with mouse anti-human C/EBPβ antibody, then protein A/G agarose beads; immunoblot for E2F2 and C/EBPβ; non-specific IgG as negative control. In general terms: A western blot detects proteins with antibodies after separation by electrophoresis.

Protein sequences, listed by entry. Tags and fused reporters are not part of them.
UniProt P17676: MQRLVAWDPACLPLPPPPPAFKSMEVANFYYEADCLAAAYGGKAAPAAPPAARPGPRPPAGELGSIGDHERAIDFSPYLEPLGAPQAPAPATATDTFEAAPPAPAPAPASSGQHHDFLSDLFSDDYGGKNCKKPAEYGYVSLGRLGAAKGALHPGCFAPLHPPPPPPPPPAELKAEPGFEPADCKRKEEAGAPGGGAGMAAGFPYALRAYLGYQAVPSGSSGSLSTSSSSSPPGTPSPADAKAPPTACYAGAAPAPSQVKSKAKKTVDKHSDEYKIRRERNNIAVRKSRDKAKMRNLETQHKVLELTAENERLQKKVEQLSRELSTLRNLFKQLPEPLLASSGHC
UniProt Q14209: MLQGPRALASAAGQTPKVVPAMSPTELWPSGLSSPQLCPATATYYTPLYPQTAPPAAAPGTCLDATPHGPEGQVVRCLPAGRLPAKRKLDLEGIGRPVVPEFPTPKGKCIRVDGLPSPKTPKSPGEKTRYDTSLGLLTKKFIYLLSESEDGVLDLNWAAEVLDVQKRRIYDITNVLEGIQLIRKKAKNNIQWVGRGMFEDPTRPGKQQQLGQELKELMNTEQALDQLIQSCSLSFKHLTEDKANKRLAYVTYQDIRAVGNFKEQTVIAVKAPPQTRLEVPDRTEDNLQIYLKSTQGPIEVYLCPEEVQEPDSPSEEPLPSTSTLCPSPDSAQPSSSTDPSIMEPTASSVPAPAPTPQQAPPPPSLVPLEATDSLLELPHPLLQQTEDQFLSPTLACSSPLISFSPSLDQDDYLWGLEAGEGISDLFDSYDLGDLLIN

Assay [2] has the same target. As to the kind of experiment: co-IP; lysate of LO2 cells (about 2 x 10^6 cells), pre-cleared with protein A/G agarose beads; IP overnight at 4 °C with mouse anti-human C/EBPβ antibody, then protein A/G agarose beads; immunoblot for E2F2 and C/EBPβ; non-specific IgG as negative control.

These are yes or no findings as the source states them, for the method shown. In cells and extracts the contact can be indirect. Some entries that bind do so weakly or less than the wild type.

On to E2F2 (from UniProt Q14209 1-437), for which the binding result in assay [1] and in assay [2] was “binds” in each case.

Values taken from paper PMC9914899.
